Sequences and labels used below:
B1: il10ra_site1_sap_19_mot_HHH_b1_04771_000000013_0001_40_56_H_._HHH_b2_07595_af2_0001_0000300007_0000002_0_0001 (protein)
chain: SSSSDEEEKEVEELLEKAIRLAEERGDRAAVWLLRQALMALKLAGDPEALEIAEQMARIVLSSSS
B2: il10ra_site1_sap_11_mot_HHH_b2_03438_af2_000000049_0001_18_34_H_._HHH_b1_06062_0001_0000200032_0000001_1_0001 (protein)
chain: SSSSSTEEEIEELIEKAKEARENGDPRKAARLLAEAVRLAFELGDEELLREIWRLIHELASSSSS
B3: il10ra_site1_normal_mot_HHH_b2_04912_000000028_0001_1_20_H_._HHH_b2_05178_af2_0001_0000100003_0000001_0 (protein)
chain: SSSSDLNERALRLSIEAFRLLLRGDEEEAEKVLEEALELAEEANNERLFRQIEELLRALGSSSSS
B4: il10ra_site1_sap_15_mot_104c758fc23488854646035ccb2100c6_0001_000000282_0001_15_29_H_._01fd6ef1c0b6efbd76c07e5c6c7df02b_0001_0001_0000600016_0000001_0_0001 (protein)
chain: SSSSDEEVREEVREILEEAEQIEDERERAQLLFRAMELAYENGDDELWREVIQVAARLVQSSSSS
B5: il10ra_site1_normal_mot_8756ee2cf497b5429c717dfc0c0bcfd6_0001_000000186_0001_1_13_H_._HHH_b2_04126_af2_0001_0000700027_0000001_0 (protein)
chain: SSSSDEAAERVMELIREAIELQRRGNPEEAEKVLEEAQEIAEENNNDVLRAQLEYLLRRNSSSSS
B6: il10ra_site1_normal_mot_7f9b3cf633cfd27bca007b62ade1be3b_0001_1_000000138_0001_17_32_H_._HHH_b2_02154_0001_0000100005_0000001_1 (protein)
chain: SSSSDRAEEQARAARRFLRALVEAGDPEAARRIAEAAHQALRNLGNPELAEEIRELIEELLSSSS
B7: il10ra_site1_normal_mot_HHH_b2_01310_000000089_0001_41_55_H_._HHH_b1_05128_af2_0001_0000100002_0000001_0_af2pred_0001 (protein)
chain: SSSSDEEERLEELEKRLEELAEEGDEEEFIRLLLELARLAYRLNDKRIFERIIELAELFKSSSSS
B8: il10ra_site1_normal_mot_HHH_b2_08144_af2_000000046_0001_38_52_H_._HHH_b1_00696_0001_0000600035_0000001_0 (protein)
chain: SSSSTEEIQRIMELLRRAAELLNEGNPEEAEKLIEEAEELVKEANDPLLEIQLRFLERDINSSSS
B9: il10ra_site1_sap_23_mot_HHH_b1_07286_af2_000000054_0001_1_19_H_._HHH_b1_04853_0001_0000200021_0000001_1_0001 (protein)
chain: SSSSDEENREVYELSREAAELDSEGNPEEAEKVLEEARKLAEEAGNRLARIILEHLERIVNSSSS
B10: il10ra_site1_sap_20_mot_HHH_b1_04573_000000273_0001_43_57_H_._HHH_b2_07679_0001_0000100005_0000002_0_0001 (protein)
chain: SSSSSDENEEIYRLLREAAEALANGNPEEAREIVEQAVELAEEANSQVLLFNAEYLLRQINSSSS
B11: il10ra_site1_normal_mot_HHH_b2_07521_000000141_0001_20_37_H_._HHH_b2_04337_0001_0000200016_0000001_1 (protein)
chain: SSSSSDAERYVRLTLEFAKWLLEAGDPAYRRFLRAAEDIAKRAGDDELERLVEEVEEELNSSSSS
B12: il10ra_site1_normal_mot_HHH_b2_02337_000000026_0001_38_52_H_._HHH_b1_01113_0001_0000600054_0000001_0 (protein)
chain: SSSSDEEEEVKELLEEVRRLIEEGDFEEAAELLLRATHLAVELGDAELLQEVWEVVQLLYNSSSS
B13: il10ra_site1_normal_mot_HHH_b2_00273_000000062_0001_23_39_H_._HHH_b1_04796_af2_0001_0000100005_0000002_0 (protein)
chain: SSSSSEEELEELLEEVKKLIEKNDPERALRAIMEALRLAFRLSDEEALRELWELAKLVAELSSSS
B14: il10ra_site1_normal_mot_HHH_b2_03328_af2_000000127_0001_1_19_H_._HHH_b1_04034_0001_0000100003_0000001_0 (protein)
chain: SSSSDLEELYRLSREAAELFANGNPEEAERVLEEAEELAQELNSPVLLFNLRHLLRAIRQSSSSS
B15: il10ra_site1_normal_mot_HHH_b1_06804_000000054_0001_40_54_H_._HHH_b2_02477_af2_0001_0000600016_0000001_0_af2pred_dldesign_0_af2pred (protein)
chain: SSSSSSREELARLKAETEAALAAGDKETAYKLAIELAKRAAEEEDAEALAFARDVLERLSSSSSS
B16: il10ra_site1_normal_mot_HHH_b2_02053_af2_000000006_0001_3_19_H_._HHH_b2_07729_0001_0000400043_0000001_0 (protein)
chain: SSSSSEELYELSREALELLAQGNPEEAEKVIEEAEELAKELGNRAMLLVLRHLLHAVEQLSSSSS
B17: il10ra_site1_sap_25_mot_HHH_b2_07784_af2_000000103_0001_19_36_H_._HHH_b1_08477_0001_0000100004_0000001_0_0001 (protein)
chain: SSSSDEEEEKVLELFVKVSRLLDEGDEEKAEEILREAEELAKEINDPELELAVRFLKALASSSSS
B18: il10ra_site1_normal_mot_HHH_b2_05323_000000159_0001_1_18_H_._HHH_b1_00659_af2_0001_0000100005_0000002_0 (protein)
chain: SSSSDQEYVQEALRLVLEAFRLALRGNPEEARELLEEALELAEKGGNPRLARVIRHLLQALSSSS

The list shows a part of the results.

This experiment deals with il10ra, Q13651. The experiment in a line: yeast display titration.
On to B1, for which the “apparent Kd” value was “inactive: no binding seen”.

Turning to B2, the “apparent Kd” value was “inactive: no binding seen”.

For B3, the “apparent Kd” value is “inactive: no binding seen”.

Consider B4, for which the “apparent Kd” value is “inactive: no binding seen”.

As to B5, the “apparent Kd” value was “inactive: no binding seen”.

Regarding B6, the “apparent Kd” value was “inactive: no binding seen”.

Regarding B7, the “apparent Kd” value was “inactive: no binding seen”.

As for B8, the “apparent Kd” value was “inactive: no binding seen”.

Regarding B9, the “apparent Kd” value is “inactive: no binding seen”.

Regarding B10, the “apparent Kd” value is “inactive: no binding seen”.

For B11, the “apparent Kd” value was “inactive: no binding seen”.

For the molecule B12, the “apparent Kd” value was “inactive: no binding seen”.

For B13, the “apparent Kd” value is “inactive: no binding seen”.

Regarding B14, the “apparent Kd” value was “inactive: no binding seen”.

For the molecule B15, the “apparent Kd” value was “inactive: no binding seen”.

For the molecule B16, the “apparent Kd” value is “inactive: no binding seen”.

For B17, the “apparent Kd” value is “inactive: no binding seen”.

For B18, the “apparent Kd” value was “inactive: no binding seen”.

For the origin of these results see PMC10163288.
